Source: paper doi:10.1101/2023.01.10.523476 (bioRxiv, 2023)

Biological target: T1, GspDβ secretin (ETEC H10407 strain) with hexahistidine tag (Enterotoxigenic E. coli (ETEC) H10407 strain) (UniProt E3PJ86)
T1 sequence: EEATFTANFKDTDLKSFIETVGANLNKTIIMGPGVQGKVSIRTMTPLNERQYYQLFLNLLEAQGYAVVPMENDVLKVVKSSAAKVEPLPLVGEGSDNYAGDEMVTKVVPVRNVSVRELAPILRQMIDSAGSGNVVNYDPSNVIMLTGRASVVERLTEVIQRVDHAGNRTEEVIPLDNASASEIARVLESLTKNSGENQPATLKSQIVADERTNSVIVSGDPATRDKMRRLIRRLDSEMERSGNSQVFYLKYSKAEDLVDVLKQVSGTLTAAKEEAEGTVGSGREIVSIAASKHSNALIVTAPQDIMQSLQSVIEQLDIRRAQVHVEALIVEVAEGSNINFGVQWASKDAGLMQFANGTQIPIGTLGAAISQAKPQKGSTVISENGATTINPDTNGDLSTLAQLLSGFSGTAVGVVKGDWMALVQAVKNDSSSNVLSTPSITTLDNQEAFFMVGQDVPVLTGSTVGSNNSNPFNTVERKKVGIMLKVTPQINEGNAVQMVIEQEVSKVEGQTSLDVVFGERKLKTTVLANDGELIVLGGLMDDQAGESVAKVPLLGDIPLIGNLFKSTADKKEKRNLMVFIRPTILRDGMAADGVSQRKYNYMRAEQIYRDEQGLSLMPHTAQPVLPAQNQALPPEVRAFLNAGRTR
Test: cryo-EM structure

Row | Substance | binding
1 | GspS pilotin (ETEC H10407 strain), no tag | binds
2 | E. coli endogenous GspS | binds

No constants are given. Whether binding was seen depends on the method and setting. Binding can be weak; no strength is given. Tags and fused reporters may be left off the sequences shown.
